Values quoted from earlier work as cited in patent publication US5756125A (G. D. Searle & Co., priority 1995, dated 1998).

Experiments:
gastrointestinal tract = conditions: background statement
[1] = background statement

| Structure (SMILES) | irritancy to the gastrointestinal tract (gastrointestinal tract) | rate of absorption [1] |
| --- | --- | --- |
| COc1ccc2cc([C@H](C)C(=O)O)ccc2c1 [Naproxen sodium] | irritants to the gastrointestinal tract | comparatively faster rate of absorption |
| COc1ccc2cc([C@H](C)C(=O)O)ccc2c1 [Naproxen, (S)-6-methoxy-α-methyl-2-naphthaleneacetic acid] | irritants to the gastrointestinal tract | comparatively slow rate of absorption |
